Reference: publication PMC13321232
These are yes or no findings as the source states them, for the method shown. In cells and extracts the contact can be indirect. Some entries that bind do so weakly or less than the wild type. Where a sequence is shown, tags or fusion partners need not be part of it.

How the values were obtained:
[1] = target: T1, PXL2-flag (Arabidopsis thaliana) (UniProt Q9M0G7); experiment: co-IP; FLAG- and HA-tagged proteins cotransfected into Arabidopsis protoplasts from root cell suspension cultures; 10 µM MG132 for 6 h; lysis in 50 mM Tris-HCl pH 7.6, 150 mM NaCl, 1% NP-40, 0.1% SDS; anti-FLAG (anti-DYKDDDDK) or anti-HA magnetic beads, 4 °C; western blot
T1 sequence: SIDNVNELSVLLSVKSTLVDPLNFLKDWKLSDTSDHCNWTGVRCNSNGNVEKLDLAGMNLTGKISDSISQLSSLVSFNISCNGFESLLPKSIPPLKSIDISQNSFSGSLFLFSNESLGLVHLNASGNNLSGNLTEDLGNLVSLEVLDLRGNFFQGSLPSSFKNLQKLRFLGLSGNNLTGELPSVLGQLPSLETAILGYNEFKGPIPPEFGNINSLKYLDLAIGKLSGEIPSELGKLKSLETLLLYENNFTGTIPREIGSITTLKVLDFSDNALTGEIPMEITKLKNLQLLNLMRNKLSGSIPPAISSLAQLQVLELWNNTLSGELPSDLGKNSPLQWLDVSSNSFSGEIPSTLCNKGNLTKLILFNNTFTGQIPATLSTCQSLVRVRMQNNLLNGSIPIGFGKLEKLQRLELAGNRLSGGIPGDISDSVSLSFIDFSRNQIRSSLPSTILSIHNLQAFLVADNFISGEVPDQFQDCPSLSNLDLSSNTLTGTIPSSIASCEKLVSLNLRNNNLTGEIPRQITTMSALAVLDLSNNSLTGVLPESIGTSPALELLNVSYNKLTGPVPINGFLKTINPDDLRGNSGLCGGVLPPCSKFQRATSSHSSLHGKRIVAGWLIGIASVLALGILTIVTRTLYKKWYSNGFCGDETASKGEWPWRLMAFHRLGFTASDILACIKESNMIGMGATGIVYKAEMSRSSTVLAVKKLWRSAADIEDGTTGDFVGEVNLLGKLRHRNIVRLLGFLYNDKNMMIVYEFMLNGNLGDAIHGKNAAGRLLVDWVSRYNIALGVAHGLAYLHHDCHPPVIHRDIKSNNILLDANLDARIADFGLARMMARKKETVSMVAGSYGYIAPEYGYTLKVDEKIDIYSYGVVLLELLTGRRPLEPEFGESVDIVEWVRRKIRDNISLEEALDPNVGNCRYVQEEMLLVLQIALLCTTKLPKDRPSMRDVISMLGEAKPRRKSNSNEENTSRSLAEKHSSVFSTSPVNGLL

[2] = target: T2, PXL1-flag (Arabidopsis thaliana) (UniProt Q9FRS6); experiment: as above
T2 sequence: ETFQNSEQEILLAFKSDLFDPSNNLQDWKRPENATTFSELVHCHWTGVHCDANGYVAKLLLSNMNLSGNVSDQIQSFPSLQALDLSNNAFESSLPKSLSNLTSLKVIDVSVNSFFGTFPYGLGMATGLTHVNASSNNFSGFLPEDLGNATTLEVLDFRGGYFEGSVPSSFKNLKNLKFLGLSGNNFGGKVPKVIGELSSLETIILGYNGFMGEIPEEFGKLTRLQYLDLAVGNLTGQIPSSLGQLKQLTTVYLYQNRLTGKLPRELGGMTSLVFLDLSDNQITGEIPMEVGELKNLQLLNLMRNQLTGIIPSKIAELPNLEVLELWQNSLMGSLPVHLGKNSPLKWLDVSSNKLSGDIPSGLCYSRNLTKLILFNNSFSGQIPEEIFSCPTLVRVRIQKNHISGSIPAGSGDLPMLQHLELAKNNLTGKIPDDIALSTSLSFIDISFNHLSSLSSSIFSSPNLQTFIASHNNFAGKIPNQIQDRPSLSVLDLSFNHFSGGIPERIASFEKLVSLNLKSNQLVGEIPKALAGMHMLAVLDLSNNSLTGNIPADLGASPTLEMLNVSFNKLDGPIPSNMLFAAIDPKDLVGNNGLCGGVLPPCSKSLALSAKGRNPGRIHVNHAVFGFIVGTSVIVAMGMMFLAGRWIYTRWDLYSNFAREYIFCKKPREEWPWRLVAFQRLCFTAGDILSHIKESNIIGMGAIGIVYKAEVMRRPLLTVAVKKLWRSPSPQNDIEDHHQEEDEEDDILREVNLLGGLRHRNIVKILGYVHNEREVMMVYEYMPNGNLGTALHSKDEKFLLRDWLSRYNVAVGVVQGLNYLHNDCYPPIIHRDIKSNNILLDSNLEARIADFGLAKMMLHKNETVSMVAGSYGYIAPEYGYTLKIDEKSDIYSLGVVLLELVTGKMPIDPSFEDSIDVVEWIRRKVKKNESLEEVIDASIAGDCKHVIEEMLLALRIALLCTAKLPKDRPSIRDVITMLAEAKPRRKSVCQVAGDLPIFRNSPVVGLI

B1: ERL1-HA (receptor, UniProt C0LGW6 26-966)
chain: MNNEGKALMAIKGSFSNLVNMLLDWDDVHNSDLCSWRGVFCDNVSYSVVSLNLSSLNLGGEISPAIGDLRNLQSIDLQGNKLAGQIPDEIGNCASLVYLDLSENLLYGDIPFSISKLKQLETLNLKNNQLTGPVPATLTQIPNLKRLDLAGNHLTGEISRLLYWNEVLQYLGLRGNMLTGTLSSDMCQLTGLWYFDVRGNNLTGTIPESIGNCTSFQILDISYNQITGEIPYNIGFLQVATLSLQGNRLTGRIPEVIGLMQALAVLDLSDNELVGPIPPILGNLSFTGKLYLHGNMLTGPIPSELGNMSRLSYLQLNDNKLVGTIPPELGKLEQLFELNLANNRLVGPIPSNISSCAALNQFNVHGNLLSGSIPLAFRNLGSLTYLNLSSNNFKGKIPVELGHIINLDKLDLSGNNFSGSIPLTLGDLEHLLILNLSRNHLSGQLPAEFGNLRSIQMIDVSFNLLSGVIPTELGQLQNLNSLILNNNKLHGKIPDQLTNCFTLVNLNVSFNNLSGIVPPMKNFSRFAPASFVGNPYLCGNWVGSICGPLPKSRVFSRGALICIVLGVITLLCMIFLAVYKSMQQKKILQGSSKQAEGLTKLVILHMDMAIHTFDDIMRVTENLNEKFIIGYGASSTVYKCALKSSRPIAIKRLYNQYPHNLREFETELETIGSIRHRNIVSLHGYALSPTGNLLFYDYMENGSLWDLLHGSLKKVKLDWETRLKIAVGAAQGLAYLHHDCTPRIIHRDIKSSNILLDENFEAHLSDFGIAKSIPASKTHASTYVLGTIGYIDPEYARTSRINEKSDIYSFGIVLLELLTGKKAVDNEANLHQLILSKADDNTVMEAVDPEVTVTCMDLGHIRKTFQLALLCTKRNPLERPTMLEVSRVLLSLVPSLQVAKKLPSLDHSTKKLQQENEVRNPDAEASQWFVQFREVISKSSI
binding [1]: binds
binding [2]: binds
